Laboratory results published in paper PMC4895818.

Target: T1, GFP-PsAvh262 (N-terminal GFP-tagged PsAvh262 without the N-terminal secretion signal peptide 1-18 aa) (Phytophthora sojae) (UniProt E0W5H5)
T1 sequence: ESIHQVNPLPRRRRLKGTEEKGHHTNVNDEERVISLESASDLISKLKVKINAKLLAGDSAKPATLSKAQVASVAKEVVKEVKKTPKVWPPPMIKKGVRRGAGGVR
Assay: affinity purification with mass spectrometry; GFP-PsAvh262 expressed in N. benthamiana leaves; 5 ml total protein extract with 30 ul GFP-Trap_A beads, 4 °C, 3 h; lysis buffer 10 mM Tris-Cl pH 7.5, 150 mM NaCl, 0.5 mM EDTA, 0.5% NP-40; LC-MS/MS against N. tabacum sequences

“NbBiP5 (PsAvh262-associated N. benthamiana ER-luminal binding immunoglobulin protein)” was tested, and the binding was “binds”.

No constants are given. Whether binding was seen depends on the method and setting. In cells and extracts the contact can be indirect. Here binding means that the protein was enriched with, or labelled near, the bait; the list need not be complete. Sequences can lack the tags named with a protein.
